Taken from: PubChem BioAssay AID1053208 (Peter MacCallum Cancer Centre, 2014)

Test: 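Synthetic lethal interactions between gene loss and doxorubicin in osteosarcoma cells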 (primary screen)
Cells: mouse osteosarcoma cells, early-passage culture from an engineered mouse model of fibroblastic bone tumour
Reagent: siRNA pool against mouse genes, 40 nM
Time to read-out: about 120 h (48 h before drug, then 72 h with drug)
Challenge: doxorubicin 100 nM for 72 h, roughly 30-40% inhibitory dose
Measured: 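Viability read as ATP luminescence after 72 h of 100 nM doxorubicin or none, duplicate wells averaged, scaled to non-targeting siRNA, then expressed as robust z-scores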
Reading the numbers: viability z-score with doxorubicin and doxorubicin viability vs non-targeting: higher = more viable cells under doxorubicin; viability z-score without drug: higher = more viable cells with knock-down alone; z-score of drug to no-drug ratio: higher = less drug sensitisation by knock-down
Rule for the call: 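a pool counts as active when its viability z-score with doxorubicin is -2 or below and its z-score without drug lies between -2 and 2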
Shown is a random part of about 17,000 reagents. Over the whole deposit, 788 (4.7%) got an active call. 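Calls rest on z-score classes alone; an extra cut-off of viability at most 70% of control was not applied to them.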

| Gene | combined z-score class | viability z-score with doxorubicin | viability z-score without drug | z-score of drug to no-drug ratio | doxorubicin viability vs non-targeting | activity call |
| --- | --- | --- | --- | --- | --- | --- |
| Rab18 (RAB18, member RAS oncogene family) | no change with or without drug | 0.34 | 1.18 | -0.34 | 0.97 | inactive |
| Stat2 (signal transducer and activator of transcription 2) | no change with or without drug | 0 | 0.67 | -0.34 | 0.94 | inactive |
| Rpl38 (ribosomal protein L38) | low cell count with and without drug | -5.4 | -6.91 | -1.46 | 0.46 | inactive |
| Pigx (phosphatidylinositol glycan anchor biosynthesis, class X) | no change with or without drug | -0.9 | -0.84 | -0.22 | 0.86 | inactive |
| Dok3 (docking protein 3) | no change with or without drug | -0.45 | -1.52 | 0.79 | 0.9 | inactive |
| Klf12 (Kruppel-like transcription factor 12) | no change with or without drug | -0.9 | 0 | -0.79 | 0.86 | inactive |
| Adamts20 (ADAM metallopeptidase with thrombospondin type 1 motif 20) | no change with or without drug | 0.22 | 0.84 | -0.22 | 0.96 | inactive |
| Serpina3k (serine (or cysteine) peptidase inhibitor, clade A, member 3K) | no change with or without drug | 0.67 | 0.67 | 0.34 | 1 | inactive |
| Mucl2 (mucin-like 2) | no change with or without drug | -0.9 | -0.51 | -0.56 | 0.86 | inactive |
| Six2 (sine oculis-related homeobox 2) | no change with or without drug | 0.9 | 0.67 | 0.56 | 1.02 | inactive |
| Kremen2 (kringle containing transmembrane protein 2) | no change with or without drug | 0 | 0.17 | 0 | 0.94 | inactive |
| Ift56 (intraflagellar transport 56) | high cell count with doxorubicin only | 2.25 | 1.85 | 1.12 | 1.14 | inactive |
| Sec11c (SEC11 homolog C, signal peptidase complex subunit) | high cell count without drug only | 1.01 | 3.37 | -0.9 | 1.03 | inactive |
| Zfp59 (zinc finger protein 59) | no change with or without drug | -1.57 | 0.67 | -1.91 | 0.8 | inactive |
| Nipsnap3b (nipsnap homolog 3B) | high cell count with doxorubicin only | 2.02 | 1.18 | 1.35 | 1.12 | inactive |
| Ap3d1 (adaptor-related protein complex 3, delta 1 subunit) | high cell count without drug only | 1.12 | 2.36 | -0.34 | 1.04 | inactive |
| Gata4 (GATA binding protein 4) | no change with or without drug | 1.01 | -0.84 | 1.8 | 1.03 | inactive |
| Mpv17 (MpV17 mitochondrial inner membrane protein) | no change with or without drug | 0 | -1.52 | 1.24 | 0.94 | inactive |
| Pfkl (phosphofructokinase, liver, B-type) | no change with or without drug | 0.34 | -1.18 | 1.35 | 0.97 | inactive |
| Ifi27l2b (interferon, alpha-inducible protein 27 like 2B) | no change with or without drug | 0 | 1.18 | -0.67 | 0.94 | inactive |
| Elovl2 (ELOVL fatty acid elongase 2) | no change with or without drug | -0.34 | 0.67 | -0.67 | 0.91 | inactive |
| Slc22a3 | no change with or without drug | 0.11 | 0.84 | -0.34 | 0.95 | inactive |
| Gp9 (glycoprotein 9 platelet) | no change with or without drug | 0.67 | 0.84 | 0.22 | 1 | inactive |
| Tbc1d19 (TBC1 domain family, member 19) | high cell count with doxorubicin only | 2.25 | 1.52 | 1.35 | 1.14 | inactive |
| Srd5a3 (steroid 5 alpha-reductase 3) | high cell count with doxorubicin only | 3.26 | 0.51 | 3.15 | 1.23 | inactive |
| Spink8 (serine peptidase inhibitor, Kazal type 8) | no change with or without drug | 1.35 | 1.52 | 0.45 | 1.06 | inactive |
| Trpc3 | no change with or without drug | -0.45 | 0 | -0.34 | 0.9 | inactive |
| Gm4827 (predicted gene 4827) | no change with or without drug | -0.67 | 0.17 | -0.67 | 0.88 | inactive |
| Nudt7 (nudix hydrolase 7) | no change with or without drug | 1.69 | -0.17 | 2.02 | 1.09 | inactive |
| Slc16a12 | no change with or without drug | -0.67 | 0.17 | -0.67 | 0.88 | inactive |
| Ipo13 (importin 13) | no change with or without drug | -1.24 | -1.35 | -0.34 | 0.83 | inactive |
| Stac (src homology three (SH3) and cysteine rich domain) | no change with or without drug | -0.45 | -0.67 | 0.11 | 0.9 | inactive |
| Stard10 (StAR related lipid transfer domain containing 10) | no change with or without drug | -1.12 | 0.34 | -1.24 | 0.84 | inactive |
| Ccl8 (C-C motif chemokine ligand 8) | no change with or without drug | 0.9 | 0.51 | 0.67 | 1.02 | inactive |
| Prodh (proline dehydrogenase) | no change with or without drug | -0.22 | -1.01 | 0.56 | 0.92 | inactive |
| Fzr1 (fizzy and cell division cycle 20 related 1) | no change with or without drug | -0.22 | -0.51 | 0.22 | 0.92 | inactive |
| Rep15 (RAB15 effector protein) | no change with or without drug | -0.9 | 0.51 | -1.12 | 0.86 | inactive |
| Kctd5 (potassium channel tetramerisation domain containing 5) | no change with or without drug | -1.12 | -0.17 | -1.01 | 0.84 | inactive |
| Trpm6 | no change with or without drug | -1.12 | -1.52 | 0 | 0.84 | inactive |
| Cyp2c40 (cytochrome P450, family 2, subfamily c, polypeptide 40) | no change with or without drug | 0 | 0.51 | -0.22 | 0.94 | inactive |
| Or5b106 (olfactory receptor family 5 subfamily B member 106) | no change with or without drug | 0 | 0 | 0.11 | 0.94 | inactive |
| Dynlt2a1 (dynein light chain Tctex-type 2A1) | no change with or without drug | -1.35 | 0 | -1.35 | 0.82 | inactive |
| Adprh (ADP-ribosylarginine hydrolase) | no change with or without drug | 0.22 | -0.17 | 0.45 | 0.96 | inactive |
| Acsm2 (acyl-CoA synthetase medium-chain family member 2) | no change with or without drug | -0.22 | -0.17 | 0 | 0.92 | inactive |
| Tln1 (talin 1) | no change with or without drug | -1.01 | -1.52 | 0.11 | 0.85 | inactive |
| Zfp316 (zinc finger protein 316) | high cell count without drug only | 1.24 | 2.19 | -0.11 | 1.05 | inactive |
| Eif3e (eukaryotic translation initiation factor 3, subunit E) | low cell count with and without drug | -3.37 | -3.2 | -1.57 | 0.64 | inactive |
| Or4c11b (olfactory receptor family 4 subfamily C member 11B) | no change with or without drug | -0.67 | -1.69 | 0.67 | 0.88 | inactive |
| Cyp4v3 (cytochrome P450, family 4, subfamily v, polypeptide 3) | no change with or without drug | -0.11 | 0.34 | -0.22 | 0.93 | inactive |
| Gfpt2 (glutamine fructose-6-phosphate transaminase 2) | high cell count without drug only | 1.8 | 2.19 | 0.45 | 1.1 | inactive |
